Measurements reported in the supplement of paper PMC10849652.
Some of the results follow.

Amino acid sequences for entries named in this document (tags omitted). A change or cut given only in a name is not applied to a line headed by its entry.
UniProt Q16762: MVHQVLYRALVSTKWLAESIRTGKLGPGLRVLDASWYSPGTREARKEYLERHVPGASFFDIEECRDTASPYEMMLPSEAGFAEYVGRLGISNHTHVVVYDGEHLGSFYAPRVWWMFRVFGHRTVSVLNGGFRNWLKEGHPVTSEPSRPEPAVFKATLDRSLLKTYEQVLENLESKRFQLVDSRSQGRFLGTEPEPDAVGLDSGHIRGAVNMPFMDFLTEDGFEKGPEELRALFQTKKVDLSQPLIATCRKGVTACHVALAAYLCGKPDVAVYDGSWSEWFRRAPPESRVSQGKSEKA
UniProt P33981: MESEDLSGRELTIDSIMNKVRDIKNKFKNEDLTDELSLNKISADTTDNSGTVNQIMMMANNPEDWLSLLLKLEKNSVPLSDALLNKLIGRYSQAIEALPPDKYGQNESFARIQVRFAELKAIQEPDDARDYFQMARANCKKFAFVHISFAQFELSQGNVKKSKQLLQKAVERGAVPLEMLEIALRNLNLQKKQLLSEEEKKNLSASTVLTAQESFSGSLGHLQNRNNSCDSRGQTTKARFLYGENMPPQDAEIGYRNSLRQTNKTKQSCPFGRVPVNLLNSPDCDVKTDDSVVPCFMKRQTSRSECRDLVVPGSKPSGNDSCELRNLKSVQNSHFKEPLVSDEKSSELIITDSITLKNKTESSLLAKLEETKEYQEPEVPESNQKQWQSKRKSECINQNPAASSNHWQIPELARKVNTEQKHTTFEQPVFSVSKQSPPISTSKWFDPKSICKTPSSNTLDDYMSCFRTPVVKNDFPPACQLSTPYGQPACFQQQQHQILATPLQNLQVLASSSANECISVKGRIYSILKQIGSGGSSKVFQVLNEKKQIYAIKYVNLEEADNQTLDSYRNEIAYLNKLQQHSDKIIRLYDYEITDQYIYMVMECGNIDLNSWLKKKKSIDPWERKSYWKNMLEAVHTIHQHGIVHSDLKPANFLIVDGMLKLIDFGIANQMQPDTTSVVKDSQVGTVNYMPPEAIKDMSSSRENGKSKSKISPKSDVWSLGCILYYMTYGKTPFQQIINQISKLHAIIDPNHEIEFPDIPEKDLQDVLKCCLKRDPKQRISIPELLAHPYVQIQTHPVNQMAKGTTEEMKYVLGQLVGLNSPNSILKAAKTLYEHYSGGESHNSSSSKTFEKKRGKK
UniProt Q96AE7: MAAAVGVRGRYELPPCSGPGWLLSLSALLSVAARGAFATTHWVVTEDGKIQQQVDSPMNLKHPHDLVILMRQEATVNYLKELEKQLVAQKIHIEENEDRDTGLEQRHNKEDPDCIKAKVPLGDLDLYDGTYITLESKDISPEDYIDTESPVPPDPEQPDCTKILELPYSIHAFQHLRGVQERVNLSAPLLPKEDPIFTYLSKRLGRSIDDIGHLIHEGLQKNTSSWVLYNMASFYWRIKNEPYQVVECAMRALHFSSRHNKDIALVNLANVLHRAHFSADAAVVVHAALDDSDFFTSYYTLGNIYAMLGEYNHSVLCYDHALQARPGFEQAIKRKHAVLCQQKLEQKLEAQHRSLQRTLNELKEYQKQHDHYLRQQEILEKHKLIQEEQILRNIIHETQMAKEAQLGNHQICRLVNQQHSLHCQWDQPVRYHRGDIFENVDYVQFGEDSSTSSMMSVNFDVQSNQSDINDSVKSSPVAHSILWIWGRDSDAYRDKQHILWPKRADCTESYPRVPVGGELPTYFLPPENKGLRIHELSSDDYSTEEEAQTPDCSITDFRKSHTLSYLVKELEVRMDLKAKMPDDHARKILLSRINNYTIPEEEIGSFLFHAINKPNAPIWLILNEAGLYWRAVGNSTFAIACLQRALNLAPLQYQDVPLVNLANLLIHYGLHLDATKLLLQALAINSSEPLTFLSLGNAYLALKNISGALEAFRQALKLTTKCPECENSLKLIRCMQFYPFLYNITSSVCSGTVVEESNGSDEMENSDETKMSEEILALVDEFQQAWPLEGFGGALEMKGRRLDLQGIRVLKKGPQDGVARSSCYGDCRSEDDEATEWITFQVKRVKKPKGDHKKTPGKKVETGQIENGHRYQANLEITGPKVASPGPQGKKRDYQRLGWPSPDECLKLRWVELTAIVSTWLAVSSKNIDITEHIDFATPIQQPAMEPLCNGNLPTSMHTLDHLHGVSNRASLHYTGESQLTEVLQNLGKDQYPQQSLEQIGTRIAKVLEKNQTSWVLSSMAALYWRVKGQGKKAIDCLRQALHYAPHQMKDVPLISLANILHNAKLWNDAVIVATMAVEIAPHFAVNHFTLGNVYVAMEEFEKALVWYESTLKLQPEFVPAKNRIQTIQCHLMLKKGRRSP
UniProt Q5VYS8: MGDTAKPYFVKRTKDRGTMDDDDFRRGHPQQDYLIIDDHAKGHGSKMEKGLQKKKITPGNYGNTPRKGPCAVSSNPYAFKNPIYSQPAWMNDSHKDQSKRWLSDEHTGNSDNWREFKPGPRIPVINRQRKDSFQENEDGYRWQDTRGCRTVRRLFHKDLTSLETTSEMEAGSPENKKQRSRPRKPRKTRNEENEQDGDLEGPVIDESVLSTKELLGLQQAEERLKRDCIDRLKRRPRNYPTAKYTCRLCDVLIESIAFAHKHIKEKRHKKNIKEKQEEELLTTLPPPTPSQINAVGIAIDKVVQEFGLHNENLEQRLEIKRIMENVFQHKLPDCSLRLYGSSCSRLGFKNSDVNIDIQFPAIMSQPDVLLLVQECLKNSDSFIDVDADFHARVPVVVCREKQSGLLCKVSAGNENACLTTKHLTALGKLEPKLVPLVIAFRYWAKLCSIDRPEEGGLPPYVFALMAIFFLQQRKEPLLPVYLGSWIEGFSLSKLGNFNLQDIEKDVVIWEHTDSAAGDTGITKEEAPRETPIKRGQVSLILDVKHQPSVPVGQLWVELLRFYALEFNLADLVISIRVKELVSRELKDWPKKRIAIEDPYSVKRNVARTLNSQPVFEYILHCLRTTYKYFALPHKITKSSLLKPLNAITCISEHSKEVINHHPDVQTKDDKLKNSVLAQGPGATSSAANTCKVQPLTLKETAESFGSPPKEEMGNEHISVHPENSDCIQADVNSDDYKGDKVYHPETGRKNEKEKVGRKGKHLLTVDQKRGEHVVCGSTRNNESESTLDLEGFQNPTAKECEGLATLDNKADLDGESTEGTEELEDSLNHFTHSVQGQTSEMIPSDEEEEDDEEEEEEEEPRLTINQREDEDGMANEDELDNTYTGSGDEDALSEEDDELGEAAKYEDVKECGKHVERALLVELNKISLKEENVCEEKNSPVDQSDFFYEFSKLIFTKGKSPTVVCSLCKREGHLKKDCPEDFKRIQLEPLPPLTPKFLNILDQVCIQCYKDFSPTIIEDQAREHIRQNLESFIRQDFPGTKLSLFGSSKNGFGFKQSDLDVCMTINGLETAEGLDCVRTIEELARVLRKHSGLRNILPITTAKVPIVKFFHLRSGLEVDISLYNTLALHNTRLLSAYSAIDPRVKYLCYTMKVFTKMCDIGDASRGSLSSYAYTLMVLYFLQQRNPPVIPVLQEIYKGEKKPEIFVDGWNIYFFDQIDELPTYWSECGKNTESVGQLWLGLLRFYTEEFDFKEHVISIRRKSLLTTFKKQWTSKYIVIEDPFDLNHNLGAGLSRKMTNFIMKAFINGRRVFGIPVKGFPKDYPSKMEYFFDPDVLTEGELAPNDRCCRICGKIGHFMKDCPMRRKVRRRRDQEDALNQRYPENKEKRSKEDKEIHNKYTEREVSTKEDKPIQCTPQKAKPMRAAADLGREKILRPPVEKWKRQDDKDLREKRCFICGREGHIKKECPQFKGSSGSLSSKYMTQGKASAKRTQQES
UniProt Q6PGP7, whole entry, looked up: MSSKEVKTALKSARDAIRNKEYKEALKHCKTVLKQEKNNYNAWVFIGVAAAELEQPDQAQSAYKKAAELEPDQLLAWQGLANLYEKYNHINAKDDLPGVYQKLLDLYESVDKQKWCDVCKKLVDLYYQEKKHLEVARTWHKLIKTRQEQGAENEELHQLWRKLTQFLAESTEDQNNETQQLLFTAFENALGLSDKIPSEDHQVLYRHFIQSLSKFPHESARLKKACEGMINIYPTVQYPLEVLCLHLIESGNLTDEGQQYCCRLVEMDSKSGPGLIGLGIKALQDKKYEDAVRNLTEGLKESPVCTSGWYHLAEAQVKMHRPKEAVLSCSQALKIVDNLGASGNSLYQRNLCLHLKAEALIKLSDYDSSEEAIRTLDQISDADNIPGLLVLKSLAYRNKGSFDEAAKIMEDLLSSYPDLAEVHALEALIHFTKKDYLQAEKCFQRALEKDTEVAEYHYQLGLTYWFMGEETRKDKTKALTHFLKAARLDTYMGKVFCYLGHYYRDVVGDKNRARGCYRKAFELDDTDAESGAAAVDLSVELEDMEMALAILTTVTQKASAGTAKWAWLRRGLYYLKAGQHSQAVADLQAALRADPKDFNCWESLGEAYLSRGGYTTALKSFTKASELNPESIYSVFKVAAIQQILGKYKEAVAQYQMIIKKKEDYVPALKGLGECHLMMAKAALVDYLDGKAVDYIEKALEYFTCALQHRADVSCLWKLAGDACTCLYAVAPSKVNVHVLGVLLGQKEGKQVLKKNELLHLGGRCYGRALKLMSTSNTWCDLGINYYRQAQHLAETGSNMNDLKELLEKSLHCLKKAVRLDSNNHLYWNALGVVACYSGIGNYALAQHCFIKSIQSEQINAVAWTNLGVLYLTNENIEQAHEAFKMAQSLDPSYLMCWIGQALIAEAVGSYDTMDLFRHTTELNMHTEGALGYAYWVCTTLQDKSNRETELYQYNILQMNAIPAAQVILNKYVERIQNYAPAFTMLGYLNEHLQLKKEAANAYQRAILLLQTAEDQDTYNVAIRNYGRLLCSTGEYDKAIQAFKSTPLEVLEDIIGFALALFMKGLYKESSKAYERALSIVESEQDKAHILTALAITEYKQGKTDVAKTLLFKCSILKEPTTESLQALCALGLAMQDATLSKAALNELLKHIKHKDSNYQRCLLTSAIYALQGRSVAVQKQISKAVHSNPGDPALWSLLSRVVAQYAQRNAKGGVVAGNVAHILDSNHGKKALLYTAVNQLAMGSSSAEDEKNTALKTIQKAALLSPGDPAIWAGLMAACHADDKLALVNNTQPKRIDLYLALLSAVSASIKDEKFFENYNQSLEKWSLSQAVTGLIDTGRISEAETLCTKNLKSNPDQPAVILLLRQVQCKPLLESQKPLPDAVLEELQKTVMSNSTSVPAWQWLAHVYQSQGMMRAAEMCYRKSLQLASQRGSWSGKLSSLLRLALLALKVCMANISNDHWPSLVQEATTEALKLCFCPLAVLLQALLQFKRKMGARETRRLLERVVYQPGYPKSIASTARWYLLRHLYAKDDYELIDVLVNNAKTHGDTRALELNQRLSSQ
UniProt P29597: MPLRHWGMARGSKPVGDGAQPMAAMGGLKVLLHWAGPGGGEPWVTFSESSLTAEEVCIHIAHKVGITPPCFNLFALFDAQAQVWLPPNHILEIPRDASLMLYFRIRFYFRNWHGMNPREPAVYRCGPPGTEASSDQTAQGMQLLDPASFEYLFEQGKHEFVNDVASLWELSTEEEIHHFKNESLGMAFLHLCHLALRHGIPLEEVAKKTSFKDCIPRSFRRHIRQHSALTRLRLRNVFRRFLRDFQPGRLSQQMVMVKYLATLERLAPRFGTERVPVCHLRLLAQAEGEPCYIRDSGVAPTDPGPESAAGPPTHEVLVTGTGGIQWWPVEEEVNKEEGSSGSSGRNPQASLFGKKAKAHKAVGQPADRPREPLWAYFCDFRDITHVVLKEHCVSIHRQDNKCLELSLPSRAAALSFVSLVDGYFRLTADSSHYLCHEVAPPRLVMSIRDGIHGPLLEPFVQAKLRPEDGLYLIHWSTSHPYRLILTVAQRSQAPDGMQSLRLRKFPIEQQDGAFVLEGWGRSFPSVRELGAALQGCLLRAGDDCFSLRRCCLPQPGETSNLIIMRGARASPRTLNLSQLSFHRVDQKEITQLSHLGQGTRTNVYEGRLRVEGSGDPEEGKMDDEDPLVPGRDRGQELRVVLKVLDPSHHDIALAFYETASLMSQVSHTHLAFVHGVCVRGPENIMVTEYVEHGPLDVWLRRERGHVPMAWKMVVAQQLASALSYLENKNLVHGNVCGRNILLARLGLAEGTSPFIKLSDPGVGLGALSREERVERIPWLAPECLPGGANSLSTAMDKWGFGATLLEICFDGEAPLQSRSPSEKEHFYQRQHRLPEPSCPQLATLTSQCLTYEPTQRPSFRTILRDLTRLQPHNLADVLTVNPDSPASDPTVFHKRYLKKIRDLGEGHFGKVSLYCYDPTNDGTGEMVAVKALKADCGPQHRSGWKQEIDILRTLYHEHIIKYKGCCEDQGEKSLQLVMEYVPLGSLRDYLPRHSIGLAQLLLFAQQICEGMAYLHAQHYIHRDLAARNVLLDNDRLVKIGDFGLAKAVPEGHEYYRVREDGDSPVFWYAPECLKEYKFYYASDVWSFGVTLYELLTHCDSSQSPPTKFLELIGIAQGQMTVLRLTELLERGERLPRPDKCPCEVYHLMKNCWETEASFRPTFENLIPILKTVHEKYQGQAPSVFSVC

What was measured:
Test in all cases: log2 fold change, soluble protein after heating vs DMSO (PISA); higher = thermal stabilisation; K562 cells, 10 uM, 30 min; active = over 0.2 and 3.5 SD of the protein, either way, in both replicates (recomputed)
[1] = compound: NC(=O)c1cnc(N[C@@H]2CCCC[C@@H]2N)nc1Nc1cccc(-n2nccn2)c1
Procedure, shortened: (§1)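 Aliquots of K562 cells (2×10^6 cells/mL) treated with 10 μM compound for 30 min were heated for 3 min over 48°C-58°C. After pooling and extraction in PBS with 0.5% NP-40 at 4°C, soluble protein from a 21,000xg, 90 min spin was quantified by TMTpro 16plex LC-MS/MS with channel sums equalised. Thermal stability is expressed against control samples, from duplicates, as a log2 fold change.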

[2] = compound: Cc1cn(-c2cc(NC(=O)c3ccc(C)c(Nc4nccc(-c5cccnc5)n4)c3)cc(C(F)(F)F)c2)cn1 [nilotinib]
Procedure, shortened: as §1

[3] = compound: Cc1nc(Nc2n[nH]c3c2CN(C(=O)N[C@H](CN(C)C)c2ccccc2)C3(C)C)c2sccc2n1
Procedure, shortened: as §1

[4] = compound: Cc1nc(Nc2ncc(C(=O)Nc3c(C)cccc3Cl)s2)cc(N2CCN(CCO)CC2)n1 [dasatinib]
Procedure, shortened: as §1

[5] = compound: Cc1ncc(-c2ccnc(Nc3ccc(S(C)(=O)=O)cc3)n2)n1C(C)C
Procedure, shortened: as §1

[6] = compound: Cn1cc(-c2ccc3c(c2)CCN3C(=O)Cc2cccc(C(F)(F)F)c2)c2c(N)ncnc21
Procedure, shortened: as §1

[7] = compound: Cn1cncc1[C@@](N)(c1ccc(Cl)cc1)c1ccc2c(c1)c(-c1cccc(Cl)c1)cc(=O)n2C [tipifarnib]
Procedure, shortened: as §1

[8] = compound: FC(F)(F)c1ccc(/C=C/c2nc(COc3ccc(CCCCn4ccnn4)cc3)co2)cc1 [mubritinib]
Procedure, shortened: as §1

[9] = compound: NC(=O)Nc1cc(-c2cccc(F)c2)sc1C(=O)N[C@H]1CCCNC1
Procedure, shortened: as §1

[10] = compound: NC1(c2ccc(-c3nc4ccn5c(=O)[nH]nc5c4cc3-c3ccccc3)cc2)CCC1
Procedure, shortened: as §1

[11] = compound: NCC(=O)Nc1ccc(-n2nc(C(F)(F)F)cc2-c2ccc3c(ccc4ccccc43)c2)cc1
Procedure, shortened: as §1

[12] = compound: Nc1ccccc1NC(=O)c1ccc(CNC(=O)OCc2cccnc2)cc1 [entinostat]
Procedure, shortened: as §1

[13] = compound: O=C(CCCCCCNC(=O)c1cnc(N(c2ccccc2)c2ccccc2Cl)nc1)NO [citarinostat]
Procedure, shortened: as §1

[14] = compound: O=C(O)c1ccc2c(c1)nc(Nc1cccc(Cl)c1)c1ccncc12 [silmitasertib]
Procedure, shortened: as §1

[15] = compound: O=C1NC(=O)C(c2cnc3ccccn23)=C1c1cn2c3c(cc(F)cc13)CN(C(=O)N1CCCCC1)CC2
Procedure, shortened: as §1

[16] = compound: c1cc(OCCN2CCCCC2)cc(-c2n[nH]c3ccc(-c4nnc[nH]4)cc23)c1
Procedure, shortened: as §1

[17] = compound: Cn1cc(-c2ccc3nnc(C(F)(F)c4ccc5ncccc5c4)n3n2)cn1
Procedure, shortened: as §1

[18] = compound: Cc1cccc(CC(=O)N2CCc3c2ccc(-c2cn(C)c4ncnc(N)c24)c3F)n1
Procedure, shortened: as §1

[19] = compound: O=C(CCCCCCC(=O)Nc1ccccc1)NO [vorinostat]
Procedure, shortened: as §1

[20] = compound: Cc1ccc(NC(=O)c2ccc(CN3CC[C@H](N(C)C)C3)c(C(F)(F)F)c2)cc1Nc1nccc(-c2cncnc2)n1 [bafetinib]
Procedure, shortened: as §1

Measured: log2 fold change

UBE2L6 (UniProt O14933)
inactive: [1] -0.084

TST (UniProt Q16762)
inactive: [2] -0.07 | [3] -0.095 | [4] -0.045 | [5] 0.064 | [6] 0.064 | [7] 0.059 | [8] -0.142 | [9] 0.06 | [1] 0.007 | [10] -0.121 | [11] -0.026 | [12] -0.036 | [13] 0 | [14] 0.033 | [15] 0.033 | [16] -0.167

TTK (UniProt P33981)
inactive: [17] -0.35 | [11] -0.035 | [15] 0.366

TSKU (UniProt Q8WUA8)
inactive: [6] -0.056 | [7] -0.005 | [11] 0.082

TTC17 isoform 2 (UniProt Q96AE7)
inactive: [18] -0.025 | [7] 0.036 | [19] -0.049

TTR (UniProt P02766)
inactive: [8] -0.093 | [1] 0.274 | [10] 0.097 | [14] -0.34

TUBD1 (UniProt Q9UJT1)
inactive: [17] -0.129 | [7] 0.034 | [9] 0.132 | [1] 0.079 | [12] 0.041

TSPAN17 isoform 4 (UniProt Q96FV3)
inactive: [9] 0.28 | [12] -0.444 | [15] -0.042

TUBA4A (UniProt C9JJQ8)
inactive: [20] 0.116 | [4] -0.082 | [6] 0.012 | [7] 0.047 | [9] -0.035 | [11] 0.053 | [12] 0.093 | [13] 0.039 | [16] 0.206

TUBGCP6 (UniProt Q96RT7)
inactive: [1] -0.025

TUBGCP4 (UniProt Q9UGJ1)
inactive: [20] 0.014 | [4] -0.098 | [6] -0.118 | [17] -0.155 | [7] -0.088 | [9] 0.023 | [1] 0.062 | [12] 0.14 | [13] -0.053 | [16] -0.21

TTC5 (UniProt Q8N0Z6)
inactive: [4] 0.11 | [17] 0.032 | [9] 0.12 | [12] 0.196 | [13] 0.06 | [16] -0.182

Six successive entries from above, quoted:
TSKU (UniProt Q8WUA8)
inactive: [6] -0.056 | [7] -0.005 | [11] 0.082

TTC17 isoform 2 (UniProt Q96AE7)
inactive: [18] -0.025 | [7] 0.036 | [19] -0.049

TTR (UniProt P02766)
inactive: [8] -0.093 | [1] 0.274 | [10] 0.097 | [14] -0.34

TUBD1 (UniProt Q9UJT1)
inactive: [17] -0.129 | [7] 0.034 | [9] 0.132 | [1] 0.079 | [12] 0.041

TSPAN17 isoform 4 (UniProt Q96FV3)
inactive: [9] 0.28 | [12] -0.444 | [15] -0.042

TUBA4A (UniProt C9JJQ8)
inactive: [20] 0.116 | [4] -0.082 | [6] 0.012 | [7] 0.047 | [9] -0.035 | [11] 0.053 | [12] 0.093 | [13] 0.039 | [16] 0.206

(next part)

TUSC2 (UniProt O75896)
inactive: [20] -0.031 | [2] 0.107 | [3] -0.101 | [5] 0.008 | [8] 0.061 | [9] -0.015 | [10] -0.113 | [12] 0.102 | [14] -0.15 | [15] -0.17

TSPYL1 (UniProt Q9H0U9)
inactive: [2] 0.209 | [3] 0.117 | [5] -0.053 | [6] -0.052 | [7] 0.113 | [1] -0.184

TUT7 (UniProt Q5VYS8)
inactive: [18] 0.11 | [2] 0.041 | [3] 0.111 | [5] -0.05 | [6] -0.037 | [9] 0.177 | [1] -0.119 | [12] -0.045 | [19] -0.102 | [13] -0.245 | [15] 0.444 | [16] 0.381

UBE2L5, A0A1B0GUS4
inactive: [6] -0.03 | [11] 0.108 | [13] 0 | [16] -0.033

TTC21B (UniProt Q7Z4L5)
inactive: [4] 0.071 | [7] 0.114

TTF2 (UniProt Q9UNY4)
inactive: [18] -0.068 | [2] 0.024 | [3] 0.139 | [4] -0.432 | [5] 0.216 | [6] -0.038 | [17] -0.157 | [7] 0.102 | [8] -0.118 | [9] -0.017 | [1] 0.112 | [10] -0.097 | [11] -0.017 | [12] -0.035 | [19] 0.15 | [13] -0.011 | [14] 0.117 | [15] -0.084 | [16] -0.045

TYRO3 (UniProt Q06418)
inactive: [20] -0.144 | [2] 0.045 | [3] 0.018 | [5] -0.165 | [9] 0.037 | [12] 0.017 | [15] -0.298

TTC37 (UniProt Q6PGP7)
inactive: [20] 0.008 | [17] 0.17 | [1] -0.163 | [11] -0.07 | [13] 0.167 | [15] -0.776 | [16] 0.167

TUBB8B (UniProt A6NNZ2)
inactive: [20] 0.027 | [2] 0.066 | [3] 0.054 | [5] -0.038 | [6] 0.086 | [17] -0.006 | [8] 0.038 | [9] -0.003 | [10] -0.066 | [11] 0.073 | [12] 0.033 | [13] 0.059 | [14] -0.086 | [15] -0.026 | [16] -0.06

TSPYL4 (UniProt Q9UJ04)
inactive: [11] -0.069

TTC14 (UniProt Q96N46)
inactive: [20] -0.1 | [6] 0.163 | [9] -0.054 | [12] -0.076 | [13] 0.083 | [16] -0.097

TVP23C (UniProt Q96ET8)
inactive: [18] 0.033 | [4] 0.056 | [6] -0.116 | [7] 0.041 | [8] 0.04 | [1] -0.021 | [10] -0.023 | [11] -0.003 | [19] 0.045 | [13] -0.297 | [14] 0.132 | [16] 0.081

TUBB8 (UniProt Q3ZCM7)
inactive: [2] -0.089 | [3] -0.1 | [4] 0 | [5] 0.137 | [17] 0 | [9] 0.107 | [12] -0.031

TTC26
inactive: [20] -0.04 | [17] 0.04 | [11] 0.006

TWNK (UniProt Q96RR1)
inactive: [20] -0.033 | [2] 0.1 | [3] -0.036 | [5] -0.101 | [17] -0.058 | [1] -0.046 | [11] -0.114 | [15] 0.282

TYK2 (UniProt P29597)
inactive: [20] -0.054 | [4] -0.089 | [7] 0.087 | [9] -0.276 | [12] 0.23
